This is an account of results in article PMC8297771, “A highly potent and safe pyrrolopyridine-based allosteric HIV-1 integrase inhibitor targeting host LEDGF/p75-integrase interaction site” (PLoS Pathogens, 2021).

The test has as its system HFL-1 cells. Kind of test: cells. The note with it: Homo sapiens, HFL1.

What is called IC50 is the concentration needed to halve the response being measured. A high value points to a need for much substance. Molecule `CN[C@@H]1C[C@H]2O[C@@](C)([C@@H]1OC)n1c3ccccc3c3c4c(c5c6ccccc6n2c5c31)C(=O)NC4` [Staurosporine] came in with a half-maximal inhibitory concentration (IC50) of 0.4 nM.
